Assay results reported in PMC4889046 (PLoS ONE, 2016).
These are yes or no findings as the source states them, for the method shown. In cells and extracts the contact can be indirect. Some binding calls cover weakened binding; strength is not graded here. Where a sequence is shown, tags or fusion partners need not be part of it.

Biological target: APOBEC4 fused to three C-terminal HA-tags (A4-HA) (human) (UniProt Q8WW27)
Test: cross-linking

binding: binds
B1: APOBEC4 fused to three C-terminal HA-tags (A4-HA) (natural protein, human, UniProt Q8WW27 1-367, looked up)
chain: MEPIYEEYLANHGTIVKPYYWLSFSLDCSNCPYHIRTGEEARVSLTEFCQIFGFPYGTTFPQTKHLTFYELKTSSGSLVQKGHASSCTGNYIHPESMLFEMNGYLDSAIYNNDSIRHIILYSNNSPCNEANHCCISKMYNFLITYPGITLSIYFSQLYHTEMDFPASAWNREALRSLASLWPRVVLSPISGGIWHSVLHSFISGVSGSHVFQPILTGRALADRHNAYEINAITGVKPYFTDVLLQTKRNPNTKAQEALESYPLNNAFPGQFFQMPSGQLQPNLPPDLRAPVVFVLVPLRDLPPMHMGQNPNKPRNIVRHLNMPQMSFQETKDLGRLPTGRSVEIVEITEQFASSKEADEKKKKKGKK
notes: also called A4-3xHA; pA4-HA; not shown: 3xHA, C-terminal, kept
